Positions count from the first letter of the chain named. Names and notes keep the numbering of the source. Results are given in words; binding and its absence hold for the method and conditions named. In cells and extracts the contact can be indirect. Some binding calls cover weakened binding; strength is not graded here. For some of these results: Where a sequence is shown, tags or fusion partners need not be part of it.
Experiments:
[1] = molecular target: T1, human RNF12 P587R (human) (UniProt Q9NVW2); assay: co-IP; Rlim +/y or -/y mouse ESCs transfected with the indicated vectors, treated with 10 uM MG132 for 6 hr; RNF12 immunoprecipitation, immunoblot for REX1 and RNF12
T1 sequence: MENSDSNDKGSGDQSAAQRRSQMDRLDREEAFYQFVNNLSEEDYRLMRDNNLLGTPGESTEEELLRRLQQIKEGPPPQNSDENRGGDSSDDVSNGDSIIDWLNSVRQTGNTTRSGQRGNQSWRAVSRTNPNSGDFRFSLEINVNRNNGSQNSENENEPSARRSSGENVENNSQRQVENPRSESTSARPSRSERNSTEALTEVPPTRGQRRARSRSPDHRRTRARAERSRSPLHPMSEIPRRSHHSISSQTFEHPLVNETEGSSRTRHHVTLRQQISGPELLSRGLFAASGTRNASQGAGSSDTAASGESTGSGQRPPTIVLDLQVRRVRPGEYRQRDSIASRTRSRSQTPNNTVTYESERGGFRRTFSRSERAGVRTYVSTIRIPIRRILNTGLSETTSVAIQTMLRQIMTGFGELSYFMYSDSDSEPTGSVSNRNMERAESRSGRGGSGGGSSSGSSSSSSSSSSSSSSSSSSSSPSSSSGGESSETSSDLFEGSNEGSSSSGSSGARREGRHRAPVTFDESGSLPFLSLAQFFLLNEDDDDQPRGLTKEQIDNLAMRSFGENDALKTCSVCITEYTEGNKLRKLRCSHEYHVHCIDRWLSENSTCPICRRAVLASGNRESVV

Amino acid sequences for entries named in this document (tags omitted).
UniProt P22227: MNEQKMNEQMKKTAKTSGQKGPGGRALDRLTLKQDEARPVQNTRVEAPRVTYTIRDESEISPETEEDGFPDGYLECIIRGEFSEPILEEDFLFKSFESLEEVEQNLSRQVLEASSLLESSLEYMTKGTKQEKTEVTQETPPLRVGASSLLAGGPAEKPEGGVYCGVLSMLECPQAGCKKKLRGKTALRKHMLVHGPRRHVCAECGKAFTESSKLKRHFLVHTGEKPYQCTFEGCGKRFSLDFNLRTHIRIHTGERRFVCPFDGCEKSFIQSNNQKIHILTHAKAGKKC

[2] = molecular target: T2, human RNF12 Y356C (human) (UniProt Q9NVW2); assay: as above
T2 sequence: T1 sequence with Y356C, R587P

[3] = molecular target: T3, human RNF12 R599C (human) (UniProt Q9NVW2); assay: as above
T3 sequence: T1 sequence with R587P, R599C

[4] = molecular target: T4, human RNF12, wild type (human) (UniProt Q9NVW2); assay: as above
T4 sequence: T1 sequence with R587P

[5] = molecular target: T5, human RNF12 R387C (human) (UniProt Q9NVW2); assay: as above
T5 sequence: T1 sequence with R387C, R587P

[6] = molecular target: human RNF12, wild type, N-terminally 3FLAG- or HA-tagged (human) (UniProt Q9NVW2); assay: co-IP; Rlim -/y mouse ESCs transfected with N-terminal FLAG- and HA-tagged RNF12 (WT or XLID mutant); lysates subjected to FLAG immunoprecipitation, immunoblot with FLAG or HA antibodies
[7] = molecular target: human RNF12 Y356C, N-terminally 3FLAG- or HA-tagged (human) (UniProt Q9NVW2); assay: as above
[8] = molecular target: human RNF12 R387C, N-terminally 3FLAG- or HA-tagged (human) (UniProt Q9NVW2); assay: as above
[9] = molecular target: human RNF12 P587R, N-terminally 3FLAG- or HA-tagged (human) (UniProt Q9NVW2); assay: as above
[10] = molecular target: human RNF12 R599C, N-terminally 3FLAG- or HA-tagged (human) (UniProt Q9NVW2); assay: as above

Q: How did the binding [1] turn out when “REX1 transcription factor (from UniProt P22227 1-288)” was run?
A: binds

Q: What about the binding [2] of the same molecule?
A: binds

Q: What about the binding [3] of the same molecule?
A: binds

Q: And the binding [4]?
A: binds

Q: And the binding [5]?
A: binds

B1: human RNF12, wild type, N-terminally 3FLAG- or HA-tagged (enzyme, UniProt Q9NVW2 1-624)
chain: T1 sequence with R587P
Q: For B1, which binding [6] is on record?
A: binds

B2: human RNF12 Y356C, N-terminally 3FLAG- or HA-tagged (enzyme, UniProt Q9NVW2 1-624)
chain: T1 sequence with Y356C, R587P
Q: B2 was tested. Which binding [7] did it give?
A: binds

B3: human RNF12 R387C, N-terminally 3FLAG- or HA-tagged (enzyme, UniProt Q9NVW2 1-624)
chain: T1 sequence with R387C, R587P
Q: For B3, which binding [8] is on record?
A: binds

B4: human RNF12 P587R, N-terminally 3FLAG- or HA-tagged (enzyme, UniProt Q9NVW2 1-624)
chain: T1 sequence
Q: B4 was tested. Which binding [9] did it give?
A: binds

B5: human RNF12 R599C, N-terminally 3FLAG- or HA-tagged (enzyme, UniProt Q9NVW2 1-624)
chain: T1 sequence with R587P, R599C
Q: B5 was tested. Which binding [10] did it give?
A: binds
